These are yes or no findings as the source states them, for the method shown. For some assays here: In cells and extracts the contact can be indirect.
Legend:
[1] = target: Cub-XopLXccΔLRR (Xanthomonas campestris pv. campestris 8004); assay: two-hybrid; split-ubiquitin yeast two-hybrid, point-to-point co-transformation of yeast NMY51; Cub fusions (pDHB1) as bait, NubG fusions (pPR3N) as prey; growth on selective medium (-TLHA) and lacZ (X-gal) activity, 30 °C
[2] = target: XopLXccΔLRR (BiFC fusion) (Xanthomonas campestris pv. campestris 8004); assay: split reporter; BiFC with nEYFP and cEYFP fusions in transfected Arabidopsis protoplasts; YFP fluorescence detected after 8 h by confocal microscopy

B1: NubG-PPI1Δ1-358aa (domain or fragment, UniProt O23144 359-612)
chain: EDYEKRILQSLDSRQLSRDGRMRNPDEKPLIAPEAAPSKATPSETEVVPKAKAKPQPKEEPVSAPKPDATVAQNTEKAKDAVKVKNVADDDDDEVYGLGKPQKEEKPVDAATAKEMRKQEEIAKAKQAMERKKKLAEKAAAKAAIRAQKEAEKKEKKEQEKKAKKKTGGNTETETEEVPEASEEEIEAPVQEEKPQKEKVFKEKPIRNRTRGRGPETIPRAILKRKKSTNYWVYAAPAALVVLLLLVLGYYYVL
[1]
  binding: no binding

B2: cEYFP-PPI1Δ1-358aa (domain or fragment, UniProt O23144 359-612)
chain: EDYEKRILQSLDSRQLSRDGRMRNPDEKPLIAPEAAPSKATPSETEVVPKAKAKPQPKEEPVSAPKPDATVAQNTEKAKDAVKVKNVADDDDDEVYGLGKPQKEEKPVDAATAKEMRKQEEIAKAKQAMERKKKLAEKAAAKAAIRAQKEAEKKEKKEQEKKAKKKTGGNTETETEEVPEASEEEIEAPVQEEKPQKEKVFKEKPIRNRTRGRGPETIPRAILKRKKSTNYWVYAAPAALVVLLLLVLGYYYVL
[2]
  binding: no binding

— paper PMC11394911
